Measurements taken from PubChem BioAssay AID288 (DTP/NCI, 2004).
The list is a part of this screen's results and no random one: it gathers tests that were run many times, whatever their T/C, doses with no T/C, and many T/C values between a quarter and a half above the control. Further doses and runs are listed elsewhere. T/C gives the treated animals as a percentage of the vehicle group. Schedules are NCI's codes, taken here to give the interval after Q, in days (D) or hours (H), and the number of doses after X. Some entries give survivors of the animals treated and no T/C: the source holds a T/C of zero for them, seemingly a mark for toxic or unscored doses. Some doses without a T/C left all or most animals alive at the check, yet need not have been tolerated: the source hardly ever lists a survival T/C far under the control, and the zero likely stands for such cases as well. Survivors were counted at the toxicity check, usually on the fifth day, unless a day is given; later deaths do not show. Some entries hold several experiments; the results are listed from low to high. Where survival is the endpoint, the PubChem record calls one and a half times the control and up active, and a quarter to a half above the control has no call in these data; cut-offs in other NCI protocols can differ. Some T/C values carry the count of animals alive at the toxicity check (mostly the fifth day); without a count, all were alive then.

Tested on: BDF1 mice, M5076 sarcoma s.c., survival/tumor T/C
Test: NCI In Vivo Anticancer Drug Screen. Data for tumor model Sarcoma M5076 (subcutaneous) in B6D2F1 (BDF1) mice
Protocol: The antitumor activity of compounds was measured in mice bearing transplantable tumors. Survival or tumor size were measured and the results are expressed as the measurement made in the treated group (T) divided by the measurement made in the vehicle treated control group (C). The tumor model used in this assay is Sarcoma M5076 (subcutaneous) in B6D2F1 (BDF1) mice

[1] = T/C endpoint: median survival time, dose: 430.0 mg/kg/injection, schedule: Q01DX001 (ip), vehicle: saline, higher T/C = longer survival
[2] = T/C endpoint: median survival time, dose: 200.0 mg/kg/injection, schedule: Q01DX009 (ip), vehicle: saline with Tween-80, higher T/C = longer survival
[3] = T/C endpoint: median tumor weight (est.), dose: 200.0 mg/kg/injection, schedule: Q01DX009 (ip), vehicle: saline with Tween-80, higher T/C = larger tumour
[4] = T/C endpoint: median survival time, dose: 256.0 mg/kg/injection, schedule: Q01DX009 (ip), vehicle: saline with Tween-80, higher T/C = longer survival

O=P1(N(CCCl)CCCl)NCCCO1 (stereo not given)
T/C (T/C endpoint: median survival time, dose: 108.0 mg/kg/injection, schedule: Q01DX001 (ip), vehicle: saline, evaluated on day 16, higher T/C = longer survival): 133 and 152 % of control | T/C (T/C endpoint: median survival time, dose: 108.0 mg/kg/injection, schedule: Q01DX001 (ip), vehicle: saline, evaluated on day 17, higher T/C = longer survival): 126 % of control | T/C (T/C endpoint: median survival time, dose: 108.0 mg/kg/injection, schedule: Q01DX001 (ip), vehicle: saline, evaluated on day 38, higher T/C = longer survival): 118 % of control | T/C (T/C endpoint: median survival time, dose: 108.0 mg/kg/injection, schedule: Q01DX001 (ip), vehicle: saline, evaluated on day 43, higher T/C = longer survival): 132 % of control | T/C (T/C endpoint: median survival time, dose: 108.0 mg/kg/injection, schedule: Q01DX001 (ip), vehicle: saline, evaluated on day 50, higher T/C = longer survival): 141 % of control | T/C (T/C endpoint: median survival time, dose: 108.0 mg/kg/injection, schedule: Q01DX001 (ip), vehicle: saline, evaluated on day 54, higher T/C = longer survival): 127 % of control | T/C (T/C endpoint: median survival time, dose: 108.0 mg/kg/injection, schedule: Q01DX001 (ip), vehicle: saline, evaluated on day 69, higher T/C = longer survival): 149 % of control | T/C (T/C endpoint: median survival time, dose: 180.0 mg/kg/injection, schedule: Q01DX001 (ip), vehicle: saline, evaluated on day 16, higher T/C = longer survival): 133 and 149 % of control | T/C (T/C endpoint: median survival time, dose: 180.0 mg/kg/injection, schedule: Q01DX001 (ip), vehicle: saline, evaluated on day 17, higher T/C = longer survival): 145 % of control | T/C (T/C endpoint: median survival time, dose: 180.0 mg/kg/injection, schedule: Q01DX001 (ip), vehicle: saline, evaluated on day 38, higher T/C = longer survival): 118 % of control | T/C (T/C endpoint: median survival time, dose: 180.0 mg/kg/injection, schedule: Q01DX001 (ip), vehicle: saline, evaluated on day 43, higher T/C = longer survival): 151 % of control | T/C (T/C endpoint: median survival time, dose: 180.0 mg/kg/injection, schedule: Q01DX001 (ip), vehicle: saline, evaluated on day 50, higher T/C = longer survival): 148 % of control | T/C (T/C endpoint: median survival time, dose: 180.0 mg/kg/injection, schedule: Q01DX001 (ip), vehicle: saline, evaluated on day 54, higher T/C = longer survival): 147 % of control | T/C (T/C endpoint: median survival time, dose: 180.0 mg/kg/injection, schedule: Q01DX001 (ip), vehicle: saline, evaluated on day 69, higher T/C = longer survival): 170 % of control | T/C (T/C endpoint: median survival time, dose: 300.0 mg/kg/injection, schedule: Q01DX001 (ip), vehicle: saline, evaluated on day 16, higher T/C = longer survival): 156 and 167 % of control | T/C (T/C endpoint: median survival time, dose: 300.0 mg/kg/injection, schedule: Q01DX001 (ip), vehicle: saline, evaluated on day 17, higher T/C = longer survival): 156 and 161 % of control | T/C (T/C endpoint: median survival time, dose: 300.0 mg/kg/injection, schedule: Q01DX001 (ip), vehicle: saline, evaluated on day 38, higher T/C = longer survival): 133 % of control | T/C (T/C endpoint: median survival time, dose: 300.0 mg/kg/injection, schedule: Q01DX001 (ip), vehicle: saline, evaluated on day 43, higher T/C = longer survival): 168 % of control | T/C (T/C endpoint: median survival time, dose: 300.0 mg/kg/injection, schedule: Q01DX001 (ip), vehicle: saline, evaluated on day 50, higher T/C = longer survival): 154 % of control [9 of 10 alive on day 50] | T/C (T/C endpoint: median survival time, dose: 300.0 mg/kg/injection, schedule: Q01DX001 (ip), vehicle: saline, evaluated on day 54, higher T/C = longer survival): 153 and 164 % of control | T/C (T/C endpoint: median survival time, dose: 300.0 mg/kg/injection, schedule: Q01DX001 (ip), vehicle: saline, evaluated on day 69, higher T/C = longer survival): 183 % of control [7 of 10 alive on day 69] | T/C [1]: 129 % of control | survivor count [1]: 3 of 9 on day 54 | T/C (T/C endpoint: median survival time, dose: 500.0 mg/kg/injection, schedule: Q01DX001 (ip), vehicle: saline, evaluated on day 16, higher T/C = longer survival): 156 [7 of 8 alive] and 163 % of control | T/C (T/C endpoint: median survival time, dose: 500.0 mg/kg/injection, schedule: Q01DX001 (ip), vehicle: saline, evaluated on day 17, higher T/C = longer survival): 77 % of control [6 of 7 alive] | T/C (T/C endpoint: median survival time, dose: 500.0 mg/kg/injection, schedule: Q01DX001 (ip), vehicle: saline, evaluated on day 38, higher T/C = longer survival): 159 % of control | T/C (T/C endpoint: median survival time, dose: 500.0 mg/kg/injection, schedule: Q01DX001 (ip), vehicle: saline, evaluated on day 69, higher T/C = longer survival): 194 % of control [7 of 10 alive on day 69] | survivor count (T/C endpoint: median survival time, dose: 500.0 mg/kg/injection, schedule: Q01DX001 (ip), vehicle: saline, higher T/C = longer survival): 1 of 8 on day 54, 5 of 9 on day 43, 6 of 10 on day 50 | survivor count (T/C endpoint: median survival time, dose: 614.0 mg/kg/injection, schedule: Q01DX001 (ip), vehicle: saline, higher T/C = longer survival): 0 of 9 on day 54 and 1 of 5

CC[C@]1(O)C[C@H]2CN(CCc3c([nH]c4ccccc34)[C@@](C(=O)OC)(c3cc4c(cc3OC)N(C=O)[C@H]3[C@@](O)(C(=O)OC)[C@H](OC(C)=O)[C@]5(CC)C=CCN6CC[C@]43[C@@H]65)C2)C1
T/C (T/C endpoint: median survival time, dose: 0.04 mg/kg/injection, schedule: Q02DX030 (ip), vehicle: saline, higher T/C = longer survival): 125 % of control | survivor count (T/C endpoint: median survival time, dose: 0.15 mg/kg/injection, schedule: Q02DX033 (ip), vehicle: saline, higher T/C = longer survival): 10 of 10 on day 16 | survivor count (T/C endpoint: median survival time, dose: 0.3 mg/kg/injection, schedule: Q02DX033 (ip), vehicle: saline, higher T/C = longer survival): 7 of 10 on day 16

O=C1c2ccccc2C(=O)c2c(NCCNCCO)ccc(O)c21
survivor count (T/C endpoint: median survival time, dose: 225.0 mg/kg/injection, schedule: Q04DX003 (ip), vehicle: saline with Tween-80, higher T/C = longer survival): 5 of 10 on day 49

O=C1/C(=C/c2ccc3c(c2)OCO3)SC(=S)N1c1ccc(Cl)c(Cl)c1
survivor count [2]: 10 of 10 | survivor count [3]: 4 of 10 on day 20

Cc1c(N)nc([C@H](CC(N)=O)NC[C@H](N)C(N)=O)nc1C(=O)N[C@H](C(=O)N[C@H](C)[C@@H](O)[C@H](C)C(=O)N[C@H](C(=O)NCCc1nc(-c2nc(C(=O)NCCC[S+](C)C)cs2)cs1)[C@@H](C)O)C(OC1OC(CO)C(O)C(O)C1OC1OC(CO)C(O)C(OC(N)=O)C1O)c1cnc[nH]1 (stereo not given in full)
T/C (T/C endpoint: median survival time, dose: 6.4 mg/kg/injection, schedule: Q04DX009 (ip), vehicle: saline, higher T/C = longer survival): 144 % of control | T/C (T/C endpoint: median survival time, dose: 12.8 mg/kg/injection, schedule: Q04DX009 (ip), vehicle: saline, higher T/C = longer survival): 128 % of control

COc1cc(-c2ccc(NC(=O)NC3CC3)c(OC)c2)ccc1NC(=O)NC1CC1
T/C (T/C endpoint: median tumor weight (est.), dose: 200.0 mg/kg/injection, schedule: Q01DX009 (ip), vehicle: saline with Tween-80, evaluated on day 20, higher T/C = larger tumour): 141 % of control

CC1CCC(NC(=O)N(CCF)N=O)CC1 (stereo not given)
survivor count (T/C endpoint: median survival time, dose: 40.0 mg/kg/injection, schedule: Q01DX003 (ip), vehicle: saline with Tween-80, higher T/C = longer survival): 5 of 10 on day 65 | survivor count (T/C endpoint: median survival time, dose: 50.0 mg/kg/injection, schedule: Q01DX003 (ip), vehicle: saline with Tween-80, higher T/C = longer survival): 0 of 10 on day 65 | survivor count (T/C endpoint: median survival time, dose: 75.0 mg/kg/injection, schedule: Q01DX001 (ip), vehicle: saline with Tween-80, higher T/C = longer survival): 1 of 10 on day 65 | survivor count (T/C endpoint: median survival time, dose: 75.0 mg/kg/injection, schedule: Q01DX003 (ip), vehicle: saline with Tween-80, higher T/C = longer survival): 0 of 10 on day 65 | survivor count (T/C endpoint: median survival time, dose: 100.0 mg/kg/injection, schedule: Q01DX001 (ip), vehicle: saline with Tween-80, higher T/C = longer survival): 0 of 10 on day 65 | survivor count (T/C endpoint: median survival time, dose: 150.0 mg/kg/injection, schedule: Q01DX001 (ip), vehicle: saline with Tween-80, higher T/C = longer survival): 0 of 10 on day 65

C[C@@H](CN1CC(=O)NC(=O)C1)N1CC(=O)NC(=O)C1
T/C [4]: 134 % of control | survivor count [4]: 8 of 10 on day 9 | survivor count (T/C endpoint: median survival time, dose: 512.0 mg/kg/injection, schedule: Q01DX009 (ip), vehicle: saline with Tween-80, higher T/C = longer survival): 1 of 10 on day 9 | survivor count (T/C endpoint: median tumor weight (est.), dose: 256.0 mg/kg/injection, schedule: Q01DX009 (ip), vehicle: saline with Tween-80, higher T/C = larger tumour): 3 of 10 on day 20 | survivor count (T/C endpoint: median tumor weight (est.), dose: 512.0 mg/kg/injection, schedule: Q01DX009 (ip), vehicle: saline with Tween-80, higher T/C = larger tumour): 0 of 10 on day 20

CCCNC(=O)ON1C(=O)C2C3C=CC(C3)C2C1=O (stereo not given)
survivor count (T/C endpoint: median survival time, dose: 50.0 mg/kg/injection, schedule: Q01DX009 (ip), vehicle: saline with Tween-80, higher T/C = longer survival): 0 of 10 on day 9 | survivor count (T/C endpoint: median survival time, dose: 100.0 mg/kg/injection, schedule: Q01DX009 (ip), vehicle: saline with Tween-80, higher T/C = longer survival): 0 of 10 on day 9 | survivor count [2]: 0 of 10 on day 9 | T/C (T/C endpoint: median tumor weight (est.), dose: 12.5 mg/kg/injection, schedule: Q01DX009 (ip), vehicle: saline with Tween-80, evaluated on day 20, higher T/C = larger tumour): 129 % of control | survivor count (T/C endpoint: median tumor weight (est.), dose: 50.0 mg/kg/injection, schedule: Q01DX009 (ip), vehicle: saline with Tween-80, higher T/C = larger tumour): 0 of 10 on day 20 | survivor count (T/C endpoint: median tumor weight (est.), dose: 100.0 mg/kg/injection, schedule: Q01DX009 (ip), vehicle: saline with Tween-80, higher T/C = larger tumour): 0 of 10 on day 20 | survivor count [3]: 0 of 10 on day 20

COC1CC2C=C(C)/C=C/C=C/C(=O)NC(c3ccccc3)C/C=C/CCC(O)CC(=O)C2=C1O (stereo not given)
survivor count (T/C endpoint: median survival time, dose: 8.0 mg/kg/injection, schedule: Q01DX009 (ip), vehicle: Klucel (hydroxypropylcellulose) (HPC), higher T/C = longer survival): 10 of 10 | survivor count (T/C endpoint: median survival time, dose: 16.0 mg/kg/injection, schedule: Q01DX009 (ip), vehicle: Klucel (hydroxypropylcellulose) (HPC), higher T/C = longer survival): 5 of 10 | survivor count (T/C endpoint: median tumor weight (est.), dose: 8.0 mg/kg/injection, schedule: Q01DX009 (ip), vehicle: Klucel (hydroxypropylcellulose) (HPC), higher T/C = larger tumour): 2 of 10 on day 20 | survivor count (T/C endpoint: median tumor weight (est.), dose: 16.0 mg/kg/injection, schedule: Q01DX009 (ip), vehicle: Klucel (hydroxypropylcellulose) (HPC), higher T/C = larger tumour): 0 of 10 on day 20
